Test results from PubChem BioAssay AID2685 (National Center for Advancing Translational Sciences (NCATS), 2010).
The list shows a part of the results. Further columns of the screen follow, without active or inactive calls. Most of these compounds were active or inconclusive in the main read-out, so they are no random draw. The note in brackets gives the kind of curve behind each potency; many fits are weak.

Test: qHTS Assay for Lipid Storage Modulators in Drosophila S3 Cells;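 on cell number change: cells counted by Cell Tracker Red CMTPX staining in the red channel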
Conditions: BODIPY lipid droplet fluorescence, 18-24 h; for cell number change: measured here: cell count max response, cells fed with added oleic acid
Method in brief: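 Drosophila S3 cells loaded with oleic acid (400 uM, as added) and compounds at several concentrations; lipid droplets imaged by 488-nm laser-scanning cytometry, 500–530 nm intensity and object ratio to cell channel. Percent activity normalized to 20 uM Triacsin C.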

[1] = measured here: lipid fluorescence (Fed channel) AC50, cells fed with added oleic acid
[2] = measured here: cell number channel AC50, cells fed with added oleic acid

Compound | cell number change | AC50 [1] | AC50 [2]
CC(C)OC(=O)CC12CN3CC(CC(=O)OC(C)C)(CN(C1)C(=O)c1ccccc1C3=O)C2=O | 1.42% | 6.51 µM [rising, single point] | –
COc1cc(C(=O)NC(=S)Nc2ccc([N+](=O)[O-])cc2C)cc(OC)c1OC | -0.683% | 0.366 µM [rising, partial curve] | –
O=[N+]([O-])c1ccc2c(c1)Nc1nc3ccccc3nc1N2 | 15.9% | 29.1 µM [falling, single point] | –
CCN1C(=O)c2cccc3c(S(=O)(=O)N(C(=O)c4ccncc4)c4ccc(OC)cc4)ccc1c23 | 8.39% | 1.84 µM [rising, full curve, poor fit] | –
O=C(NC(=C(Cl)Cl)S(=O)(=O)c1ccc(Cl)cc1)c1ccccc1 | -13% | 0.461 µM [rising, partial curve, poor fit] | 0.82 µM [rising, single point]
CCOC(=O)c1ccccc1NC(=O)Cn1c(-c2nonc2N)nc2ccccc21 | 31.8% | 23.1 µM [rising, single point] | 2.59 µM [rising, full curve, poor fit]
O=C(c1cc(Cl)nc2ccccc12)N1CCN(S(=O)(=O)c2cccc(C(F)(F)F)c2)CC1 | – | 0.517 µM [rising, full curve, poor fit] | –
COc1ccc(CCNC(=O)c2cc(CC(C)C)on2)cc1OC | – | 1.16 µM [rising, single point] | 1.16 µM [rising, single point]
CCCc1ccc(-c2c(C)sc(NC(=O)c3ccnn3C)c2C#N)cc1 | – | 0.13 µM [rising, full curve, poor fit] | 0.184 µM [rising, full curve]
CCOc1ccc(C(=O)CC(C(=O)O)N2CCN(Cc3ccccc3)CC2)cc1 (configuration not stated) | -74.5% | 5.17 µM [falling, partial curve, poor fit] | 14.6 µM [falling, partial curve]
Cc1ccc(C(=O)NCCc2nnc3ccc(SCC(=O)N4CCCCC4)nn23)cc1 | -30.3% | 29.1 µM [falling, single point] | 29.1 µM [falling, partial curve]
CC1(C)Cc2c(sc3ncn4nc(CCC(=O)O)c(=O)nc4c23)CO1 | -0.191% | – | –
CCN(CC)CCOC(=O)c1cccc(OC)c1 | -24.1% | 6.51 µM [falling, single point] | 6.51 µM [falling, single point]
CCOC(=O)C1CCCN(S(=O)(=O)c2ccc(S(=O)(=O)N3CCCC3)cc2)C1 (configuration not stated) | 72.3% | – | 20.6 µM [rising, single point]
Cn1c(CO)cnc1SCc1ccc(F)cc1 | -11% | – | –
O=C(NCCN1CCc2ccccc2C1)Nc1ccc([N+](=O)[O-])cc1 | 22.2% | 29.1 µM [rising, single point] | –
COc1ccc(-c2nc(Cn3c(SCc4ccc(F)cc4)nc4ccncc43)c(C)o2)cc1OC | 1.84% | 0.366 µM [rising, full curve, poor fit] | –
COC(=O)CCC(=O)NNC(=O)CCCOc1ccc(Cl)cc1Cl | 1.15% | – | –

Compound | cell number change | AC50 [1] | AC50 [2]
Cc1ccc(/C=N/NC(=O)CCCOc2ccc(Cl)cc2Cl)cc1[N+](=O)[O-] | -0.934% | 1.84 µM [rising, partial curve] | 1.46 µM [rising, partial curve, poor fit]
Cc1cc(C(=O)COC(=O)CN=C2NS(=O)(=O)c3ccccc32)c(C)n1CCc1ccc(Cl)cc1 | -13.2% | – | 6.51 µM [falling, single point]
S=c1[nH]nc(-c2cccc3ccccc23)n1-c1cccnc1 | 21.3% | 6.51 µM [rising, full curve] | –
Cc1ccc(-c2nn(-c3ccccc3)cc2/C=N/NC(=O)c2ccc(Br)o2)cc1 | -30.8% | 4.61 µM [falling, single point] | 29.1 µM [falling, single point]
O=C(Oc1cccc2cccnc12)c1cccc(N2C(=O)C3C4CCC(C4)C3C2=O)c1 (configuration not stated) | 69.8% | – | 29.1 µM [rising, single point]
CCOC(=O)C1=C(COC(=O)C2CC(=O)N(c3ccc(C)cc3)C2)NC(=O)NC1C (configuration not stated) | -10% | – | –
Cc1oc(-c2ccccc2F)nc1CS(=O)(=O)CC(=O)NCCCN1CCc2ccccc2C1 | 1.22% | 29.1 µM [rising, single point] | –
NC(=O)c1nn(Cc2ccccc2)c(=O)c2ccccc12 | -15.1% | 29.1 µM [rising, single point] | 0.116 µM [falling, full curve, poor fit]
O=C(NC1CCCCC1)C(c1cccnc1)N(C(=O)CCl)c1cccc(Cl)c1 (configuration not stated) | -11.8% | 18.4 µM [falling, single point] | –
CC12CC3CC(C)(C1)CC(C(=O)Nc1nncs1)(C3)C2 | -4.4% | 29.1 µM [rising, single point] | –
COc1ccc(C(=O)C[n+]2ccc3ccccc3c2C)cc1 | -15.8% | 0.651 µM [falling, partial curve, poor fit] | –
O=C(CCN1C(=O)/C(=C/c2ccccc2Cl)SC1=S)Nc1ccccc1C(=O)O | 13% | 3.26 µM [rising, full curve, poor fit] | –
O=C(NCc1ccncc1)C(=O)Nc1nc2ccccc2s1 | 35.7% | 29.1 µM [rising, partial curve] | –
Nc1ccc2nc[nH]c2c1 | 90.9% | – | –
CCOC(=O)c1cnc(SCC(=O)NCc2ccco2)nc1N | 0.651% | 1.46 µM [falling, partial curve] | –
CCC(C)c1ccccc1NC(=O)COC(=O)CCc1cc(OC)c(OC)c(OC)c1 (configuration not stated) | -8.66% | 7.31 µM [falling, single point] | –
Cn1nc(-c2ccc(OCC(=O)Nc3cccnc3)cc2)c2ccccc2c1=O | – | 5.17 µM [rising, single point] | –
CC(=O)Nc1ccc(NC(=O)C(C)OC(=O)CCCOc2ccc(Cl)c(C)c2)cc1 (configuration not stated) | – | 0.00461 µM [rising, full curve, poor fit] | –

Part of the list above in order of length of the SMILES, high to low.
Compound | cell number change | AC50 [1] | AC50 [2]
Cc1cc(C(=O)COC(=O)CN=C2NS(=O)(=O)c3ccccc32)c(C)n1CCc1ccc(Cl)cc1 | -13.2% | – | 6.51 µM [falling, single point]
O=C(CCN1C(=O)/C(=C/c2ccccc2Cl)SC1=S)Nc1ccccc1C(=O)O | 13% | 3.26 µM [rising, full curve, poor fit] | –
CCC(C)c1ccccc1NC(=O)COC(=O)CCc1cc(OC)c(OC)c(OC)c1 (configuration not stated) | -8.66% | 7.31 µM [falling, single point] | –
Cn1nc(-c2ccc(OCC(=O)Nc3cccnc3)cc2)c2ccccc2c1=O | – | 5.17 µM [rising, single point] | –
S=c1[nH]nc(-c2cccc3ccccc23)n1-c1cccnc1 | 21.3% | 6.51 µM [rising, full curve] | –
NC(=O)c1nn(Cc2ccccc2)c(=O)c2ccccc12 | -15.1% | 29.1 µM [rising, single point] | 0.116 µM [falling, full curve, poor fit]
